# In patent US20250177367A1, “COMBINATION THERAPIES FOR MODULATION OF LIPID PRODUCTION” (Ohio State Innovation Foundation, priority 2022, published 2025):
# For at least one compound, name, drawing or mass did not settle the structure.
# Test system: GBM30-derived xenograft
# Assay: GBM30-derived flank xenograft model
# Conditions: pimozide 15, 30, 60 mg/kg/day, intraperitoneal, 14 days
compound,measurement,value
O=c1[nH]c2ccccc2n1C1CCN(CCCC(c2ccc(F)cc2)c2ccc(F)cc2)CC1 [pimozide],tumor growth,dose-dependently inhibited tumor growth
